Measured values as given in patent US20090111836A1, “Angular Pyranocoumarins, Process for Preparation and Uses Thereof” (CITY UNIVERSITY OF HONG KONG, priority 2007, published 2009).
Some of these results come from one statement about several compounds together. At least one compound was matched to its structure with a doubt left.

Amino acid sequences for entries named in this document (tags omitted).
UniProt P08183, whole entry: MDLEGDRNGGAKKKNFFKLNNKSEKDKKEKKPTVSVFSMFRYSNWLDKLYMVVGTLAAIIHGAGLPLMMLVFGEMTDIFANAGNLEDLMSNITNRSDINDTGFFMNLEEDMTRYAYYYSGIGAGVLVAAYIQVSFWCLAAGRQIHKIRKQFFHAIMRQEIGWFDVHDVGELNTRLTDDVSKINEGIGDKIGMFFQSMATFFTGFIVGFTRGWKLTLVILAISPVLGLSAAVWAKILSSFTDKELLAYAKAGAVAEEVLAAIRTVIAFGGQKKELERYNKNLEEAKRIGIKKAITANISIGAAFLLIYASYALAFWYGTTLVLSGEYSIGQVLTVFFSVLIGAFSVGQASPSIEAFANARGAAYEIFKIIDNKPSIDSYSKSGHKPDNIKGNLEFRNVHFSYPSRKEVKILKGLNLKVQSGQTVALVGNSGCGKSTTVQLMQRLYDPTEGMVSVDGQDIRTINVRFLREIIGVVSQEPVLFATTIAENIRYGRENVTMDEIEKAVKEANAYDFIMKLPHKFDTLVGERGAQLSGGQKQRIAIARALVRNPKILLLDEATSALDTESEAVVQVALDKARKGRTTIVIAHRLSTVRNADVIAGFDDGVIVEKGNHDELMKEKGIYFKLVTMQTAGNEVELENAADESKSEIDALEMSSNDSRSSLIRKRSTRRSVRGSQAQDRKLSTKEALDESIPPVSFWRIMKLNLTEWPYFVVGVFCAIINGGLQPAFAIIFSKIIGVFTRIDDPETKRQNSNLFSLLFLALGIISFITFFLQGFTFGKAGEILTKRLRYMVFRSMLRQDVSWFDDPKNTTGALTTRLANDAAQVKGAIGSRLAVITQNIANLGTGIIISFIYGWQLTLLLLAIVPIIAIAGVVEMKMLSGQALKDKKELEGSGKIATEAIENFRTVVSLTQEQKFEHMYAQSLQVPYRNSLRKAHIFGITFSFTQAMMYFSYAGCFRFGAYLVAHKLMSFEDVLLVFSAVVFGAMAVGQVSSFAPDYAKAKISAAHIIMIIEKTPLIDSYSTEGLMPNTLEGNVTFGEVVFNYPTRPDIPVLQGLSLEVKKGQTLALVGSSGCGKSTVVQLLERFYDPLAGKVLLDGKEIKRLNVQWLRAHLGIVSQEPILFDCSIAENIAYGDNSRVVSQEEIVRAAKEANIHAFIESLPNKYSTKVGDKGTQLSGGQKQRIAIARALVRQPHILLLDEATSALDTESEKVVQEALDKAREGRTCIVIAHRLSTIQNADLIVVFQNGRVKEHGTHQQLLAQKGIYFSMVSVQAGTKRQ

What was measured:
P-gp [1] = target: T1, P-gp (Homo sapiens, UniProt P08183); experiment: Rhodamine-123 efflux assay, HepG2-DR; assay type: cell-based; design: KB V1, HepG2-DR and K562-DR cell expressed P-gp at high level when compared with parental drug sensitive cells thereof; endogenous in cells; host or cells: HepG2-DR (doxorubicin-maintained multidrug resistant subline of HepG2); conditions: 10 μM, 1 hour efflux
Protocol: (§1) (Fs: cellular fluorescence intensity of Rb-123 in the presence of testing drugs; Fo: cellular fluorescence intensity of Rh-123 in the absence of any P-gp modulator).
(§2) 1.4 Test for Rh-123 transport: HepG2-DR cells or K562-DR cells (1×10^6 cells in 1 mL complete growth medium) were incubated with 5 μg/mL, Rh-123 at 37° C. for 1 hour to allow Rh-123 uptake. […] Cellular fluorescence of Rh-123 was determined by flow cytometry to analyze the inhibitive effect of test compounds on drug expulsion from cells.

P-gp [2] = target: T1, P-gp; experiment: Rhodamine-123 efflux assay, K562-DR; assay type: cell-based; design: K562-DR cell expressed P-gp at high level when compared with parental drug sensitive cells thereof; endogenous in cells; conditions: 10 μM, 1 hour efflux
Protocol: as §1, §2

SMILES	Increase in cellular Rh-123 fluorescence compared with untreated cells (P-gp [1])	Increase in cellular Rh-123 fluorescence compared with untreated cells (P-gp [2]) [%]
COc1ccc(C(=O)O[C@@H]2[C@@H](OC(=O)c3ccc(OC)c(OC)c3)c3c(ccc4ccc(=O)oc34)OC2(C)C)cc1OC (racemic) [trans-DMDBK, (±)-3′-O,4′-O-bis(3,4-dimethoxybenzoyl)-trans-khellactone]	less than 200%	< 50
COc1ccc(/C=C/C(=O)O[C@@H]2[C@@H](OC(=O)/C=C/c3ccc(OC)c(OC)c3)c3c(ccc4ccc(=O)oc34)OC2(C)C)cc1OC (racemic) [trans-DMDCK, (±)-3′-O,4′-O-bis(3,4-dimethoxycinnamoyl)-trans-khellactone]	less than 200%	< 50
